The values that follow come from PMC4675091.

The chains behind the UniProt entries cited, without tags or fusion partners. Where a name states a change or a piece, a line headed by the entry shows the natural chain unless it says otherwise. A line that says so, or that is headed by a name, gives the form on record, which may keep a tag or linker. Residues count along the entry.
UniProt P35612: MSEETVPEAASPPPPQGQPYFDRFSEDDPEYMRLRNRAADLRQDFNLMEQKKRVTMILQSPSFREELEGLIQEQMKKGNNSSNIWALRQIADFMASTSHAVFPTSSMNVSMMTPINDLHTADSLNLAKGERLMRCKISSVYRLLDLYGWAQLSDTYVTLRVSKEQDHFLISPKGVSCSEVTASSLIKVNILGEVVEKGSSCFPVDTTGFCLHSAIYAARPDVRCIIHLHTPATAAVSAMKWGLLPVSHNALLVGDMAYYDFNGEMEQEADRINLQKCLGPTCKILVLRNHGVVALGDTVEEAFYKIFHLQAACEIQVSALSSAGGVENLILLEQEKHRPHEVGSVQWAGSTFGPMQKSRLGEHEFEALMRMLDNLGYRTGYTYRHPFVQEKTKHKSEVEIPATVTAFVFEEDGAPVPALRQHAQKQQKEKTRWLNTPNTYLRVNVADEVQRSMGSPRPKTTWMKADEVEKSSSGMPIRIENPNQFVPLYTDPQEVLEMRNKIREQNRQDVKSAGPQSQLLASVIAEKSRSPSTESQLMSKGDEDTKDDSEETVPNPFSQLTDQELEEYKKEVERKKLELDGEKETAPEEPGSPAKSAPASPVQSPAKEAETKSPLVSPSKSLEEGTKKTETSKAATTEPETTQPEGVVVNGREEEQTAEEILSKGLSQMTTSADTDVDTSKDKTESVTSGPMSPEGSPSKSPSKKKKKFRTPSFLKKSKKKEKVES
myc-tagged C-terminal fragment of β-adducin (aa 502–726): residues 502-726 of P35612
myc-tagged β-adducin 502–613-fragment lacking the MARCKS domain: residues 502-613 of P35612
UniProt Q60829: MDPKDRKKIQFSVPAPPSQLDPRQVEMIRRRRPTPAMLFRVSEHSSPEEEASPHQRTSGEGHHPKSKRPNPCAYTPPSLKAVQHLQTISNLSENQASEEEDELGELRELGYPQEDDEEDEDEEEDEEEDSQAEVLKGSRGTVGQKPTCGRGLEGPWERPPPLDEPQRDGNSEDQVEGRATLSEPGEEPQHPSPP
UniProt Q6J4I0: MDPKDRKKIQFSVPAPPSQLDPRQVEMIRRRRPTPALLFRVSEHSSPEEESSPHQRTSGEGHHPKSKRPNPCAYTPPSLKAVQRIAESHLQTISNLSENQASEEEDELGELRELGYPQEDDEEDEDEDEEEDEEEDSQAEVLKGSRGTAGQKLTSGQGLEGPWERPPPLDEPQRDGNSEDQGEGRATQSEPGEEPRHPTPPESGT

In experiment [1] the target is β-adducin–mCherry (human) (UniProt P35612). Briefly: FRET or BRET; acceptor photobleaching FRET between GFP and mCherry fusions in fixed, co-transfected mouse striatal neurons in culture.
For experiment [2], the target named is myc-tagged full-length β-adducin (human) (UniProt P35612). The experiment is described as follows: co-IP; sequential: myc-β-adducin constructs from COS-7 lysate (RIPA) bound to anti-myc agarose, then lysate of COS-7 cells transfected with DARPP-32-GFP overnight at 4 °C; washed in TBS, 1% Tween 20 with additional 50 mM NaCl; immunoblot for DARPP-32. On the technique in general: A western blot detects proteins with antibodies after separation by electrophoresis.

The target in experiment [3] is myc-tagged C-terminal fragment of β-adducin (aa 502–726) (human) (UniProt P35612). The experiment is described as above.
Experiment [4] concerns the target myc-tagged β-adducin 502–613-fragment lacking the MARCKS domain (human) (UniProt P35612). Described as above.

Results are given in words; binding and its absence hold for the method and conditions named. In cells and extracts the contact can be indirect. For part of these data: Binding calls can cover weak binding; strength is not graded here.

As for S97D-DARPP-32-GFP (from UniProt Q60829), the binding entry in experiment [1] and in experiment [2] was “binds” in each case.
As to WT DARPP-32-GFP (from UniProt Q6J4I0), the binding result in experiment [1] is “binds”; in experiment [3], “binds”; in experiment [4] it was “no binding”; in experiment [2], “binds”.
